Test results as given in PubChem BioAssay AID652054 (National Center for Advancing Translational Sciences (NCATS), 2013).
Values joined by “and” are separate entries in the source; they are usually repeats but may differ in a detail not shown here. Identical values can stand only once. Screen size: about 360,000 compounds; about 9,100 (2.5%) were called active. Inconclusive results, whose numbers are uncertain, are shown with a selection of clear calls. No stated cut-off is given here; in the data, active means max response below about -50%; inconclusive means no clear call, values can overlap the other calls; inactive means above that.
On the % scale 0 is the no-effect control and ±100 the full control effect.

Sequences of proteins named here, by UniProt entry; tags and fusion partners are left off.
UniProt P35462, whole entry, looked up: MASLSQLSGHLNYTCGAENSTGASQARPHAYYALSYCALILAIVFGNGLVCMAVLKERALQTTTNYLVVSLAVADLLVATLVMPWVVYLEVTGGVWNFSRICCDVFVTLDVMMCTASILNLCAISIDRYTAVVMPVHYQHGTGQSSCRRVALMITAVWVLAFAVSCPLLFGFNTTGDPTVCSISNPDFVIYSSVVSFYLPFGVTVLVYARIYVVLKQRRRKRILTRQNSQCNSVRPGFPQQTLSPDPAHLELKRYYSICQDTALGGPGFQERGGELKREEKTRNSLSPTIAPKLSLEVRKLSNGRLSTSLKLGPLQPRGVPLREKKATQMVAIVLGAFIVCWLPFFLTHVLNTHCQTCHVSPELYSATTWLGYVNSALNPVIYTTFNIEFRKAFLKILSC

Each compound was assayed against D(3) dopamine receptor (Homo sapiens) (UniProt P35462) (assay: qHTS of D3 Dopamine Receptor Antagonist: qHTS). Conditions: D3R cells, DiscoveRx beta-arrestin luminescence, antagonist mode; stronger effect = lower value.
How it was run: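 Cells plated overnight at 1500 cells/well, then exposed to library compounds with dopamine controls for 90 minutes at 37 degrees C. DiscoveRx reagent added for 30–60 minutes at room temperature; luminescence read, quantitative HTS format.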
With `CC1CCCCN1C(=O)CSc1nc2cc3c(cc2c(=O)n1Cc1ccc2c(c1)OCO2)OCO3` (configuration not stated) the max response, negative = inhibition was inconclusive: -39.4%.
`Cc1ccccc1/C=N/NC(=O)Cn1cnc([N+](=O)[O-])n1` was tested, and the max response, negative = inhibition was inconclusive: -33.8%.
In the case of `O=C(O)C(O)Cc1c[nH]c2ccccc12` (configuration not stated), the max response, negative = inhibition was inconclusive: -37.2%.
For `CC(C)c1ccccc1NC(=O)COC(=O)c1c2c(nc3ccccc13)CCN(Cc1ccccc1)C2`, the max response, negative = inhibition was inactive: 18.4%.
With `CC1(C)Cc2ccccc2-c2nnc(-c3cccnc3)n21` the max response, negative = inhibition was inconclusive: -45.1%.
`Nc1ccccc1C(=O)NNc1c2ccccc2nc2ccccc12` was tested, and the max response, negative = inhibition was inconclusive: -49.3%.
`CC(C)CSc1nc2c(=O)[nH][nH]c(=O)c2n1Cc1ccccc1` was tested, and the max response, negative = inhibition was inconclusive: -32.4%.
In the case of `O=C(O)c1ccc(-c2nc(-c3cccc(C(F)(F)F)c3)cs2)cc1`, the max response, negative = inhibition was inactive: 2.21%.
For `CC1(c2nnnn2Cc2ccccc2)CCC(=O)N1C1CC1` (configuration not stated), the max response, negative = inhibition was inconclusive: -34.7%.
With `C#CCN(C[C@@H]1[C@@H](OC(=O)Nc2c(C)noc2C)[C@@H](OC(=O)Nc2c(C)noc2C)Cn2c(=O)n(CCCCCC)c(=O)n21)S(=O)(=O)c1ccc(C)cc1` the max response, negative = inhibition was inactive: -4.25%.
`CCOC(=O)c1ccc(NC(=O)CC2C(=O)N(c3ccc(F)cc3)C(=O)N2CCCOC)cc1` (configuration not stated) was tested, and the max response, negative = inhibition was inconclusive: -47.8%.
For `CC(C)C[C@H](NC(=O)c1nc[nH]c1C(=O)N[C@@H](CC(C)C)C(=O)OC(C)(C)C)C(=O)OC(C)(C)C`, the max response, negative = inhibition was active: -54.8%.
For `Cc1ccc(-n2c(C)cc(C3N=C(N)Nc4nc5ccccc5n43)c2C)c(C)c1` (configuration not stated), the max response, negative = inhibition was inactive: -8.67%.
`CC(=O)NN1C(=O)c2ccccc2NC1c1ccccn1` (configuration not stated) was tested, and the max response, negative = inhibition was inconclusive: -45%.
With `Cc1[nH]c2ccccc2c1/C=N/NC(=O)c1cc(C(C)(C)C)[nH]n1` the max response, negative = inhibition was active: -58.8%.
In the case of `O=C(NCc1ccccc1)c1ccc(Oc2ccc(C(=O)NCc3ccccc3)cc2)cc1`, the max response, negative = inhibition was inactive: -6.54%.
With `N#C/C(=C\c1cccnc1)c1ccccc1[N+](=O)[O-]` the max response, negative = inhibition was inconclusive: -30.6%.
In the case of `CCn1cc(S(=O)(=O)CC(=O)Nc2ccc3c(c2)OCO3)c2ccccc21`, the max response, negative = inhibition was inactive: 0%.
`Nc1cc(N)c(OCC(F)(F)F)cc1OCC(F)(F)F` was tested, and the max response, negative = inhibition was active: -56.4%.
`O=C(Nc1ccc(N2CCCCC2)cc1)c1ccc([N+](=O)[O-])o1` was tested, and the max response, negative = inhibition was inconclusive: -33.6%.
For `O=C(OCc1nnc(-c2ccccc2)o1)C1CC(=O)N(Cc2ccco2)C1` (configuration not stated), the max response, negative = inhibition was inconclusive: -43.7%.
With `COc1ccc(OC)c2c1CCC2=O` the max response, negative = inhibition was active: -52%.
`O=C(CN1CCc2cc3c(cc2C1)OCCCO3)Nc1cccc(Br)c1` was tested, and the max response, negative = inhibition was inconclusive: -30.7%.
In the case of `CN(Cc1nccs1)C(=O)c1ccc(OC2CCN(CCc3ccccc3)CC2)cc1`, the max response, negative = inhibition was inconclusive: -44.9%.
In the case of `Cc1[nH]c2ccccc2c1CN1CCc2ccccc2C1`, the max response, negative = inhibition was inconclusive: -37.4%.
`O=C(CSc1nc2[nH]ncc2c(=O)[nH]1)Nc1ccc(F)cc1` was tested, and the max response, negative = inhibition was inactive: 2.63%.
For `CC(=O)NC(CC(=O)Nc1ccc(S(=O)(=O)N2CCCC2)cc1)c1ccccc1` (configuration not stated), the max response, negative = inhibition was inconclusive: -42%.
`c1ccn(-c2ccc(-c3ccn[nH]3)cc2)c1` was tested, and the max response, negative = inhibition was inactive: -0.808%.
For `C/C(=N\NC(=S)NC1CCCCC1)c1ccc(OC(F)F)cc1OC(F)F`, the max response, negative = inhibition was inconclusive: -44.1%.
With `CCOC(=O)CSc1snnc1C` the max response, negative = inhibition was inconclusive: -35.5%.
`NC(=O)CC(NC(=O)c1ccccc1)c1ccc(NCCCN2CCCC2=O)c([N+](=O)[O-])c1` (configuration not stated) was tested, and the max response, negative = inhibition was inconclusive: -45.8%.
In the case of `CCN(c1cccc(C(F)(F)F)c1)S(=O)(=O)c1ccc2c(c1)CCN2C(C)=O`, the max response, negative = inhibition was active: -61.8%.
`O=C(CSc1ccc2nnc(-c3ccccn3)n2n1)Nc1ccc(F)cc1F` was tested, and the max response, negative = inhibition was inconclusive: -32.2%.
`O=C(NCc1ccco1)C(=O)NCC1OCCCN1S(=O)(=O)c1ccccc1` (configuration not stated) was tested, and the max response, negative = inhibition was inconclusive: -35.5%.
`CC(C)(C)OC(=O)N1CC2(CCCCC2)CC1Cc1ccc(C(F)(F)F)cc1` (configuration not stated) was tested, and the max response, negative = inhibition was inactive: -10.3%.
`COc1ccc(C2=CC(=O)C[C@H](c3ccc(OC)c(OC)c3)C2)cc1` was tested, and the max response, negative = inhibition was inactive: 16.8%.
`COc1ccc(S(=O)(=O)Nc2cccc3c2O[C@H](CN(C)Cc2ccc(Oc4ccccc4)cc2)[C@@H](C)CN([C@H](C)CO)C3=O)cc1` was tested, and the max response, negative = inhibition was inconclusive: -32.9%.
With `Cc1cc(C)c(C)c(OCCN2CC(C)OC(C)C2)c1` (configuration not stated) the max response, negative = inhibition was inconclusive: -46.6%.
With `COc1ccc(CCNC(=O)Nc2nc(C(N)C3CCCCC3)cs2)cc1OC` (configuration not stated) the max response, negative = inhibition was inconclusive: -38.9%.
In the case of `Cc1ccc(C)c2sc(N3CCN(C(=O)c4ccc([N+](=O)[O-])o4)CC3)nc12`, the max response, negative = inhibition was inconclusive: -35%.
With `O=C(OCCCOC(=O)c1ccc([N+](=O)[O-])o1)c1ccc([N+](=O)[O-])o1` the max response, negative = inhibition was inactive: -19.1%.
For `CCOc1nc(N(C)C)nc(-n2nnc(C(C)=O)c2C)n1`, the max response, negative = inhibition was inconclusive: -32.3%.
For `CCCCSc1nnc2nc(C)cc(C)n12`, the max response, negative = inhibition was active: -57.6%.
With `Cc1cc(NC(=O)c2ccc(Cl)c(S(=O)(=O)N3CCCCC3)c2)no1` the max response, negative = inhibition was inconclusive: -32.2%.
With `Cc1cc(/C=C2\SC(=S)NC2=O)c(C)n1-c1cccc(O)c1` the max response, negative = inhibition was inconclusive: -36.2%.
`COc1ccc(CCC(C)NCC2CCCCC2)cc1` (configuration not stated) was tested, and the max response, negative = inhibition was active: -69.6%.
In the case of `CCn1c(SCC(=O)NC(=O)NCc2ccco2)nc2sc(C)c(C)c2c1=O`, the max response, negative = inhibition was inconclusive: -33.2%.
With `Cc1cc(C)nc(N(C#N)CN2C(=O)c3ccccc3S2(=O)=O)n1` the max response, negative = inhibition was inactive: -26.8%.
With `OC(c1ccc(F)c(F)c1)c1ncc(-c2ccccc2F)[nH]1` (configuration not stated) the max response, negative = inhibition was inconclusive: -41.5%.
With `CCOC(=O)C1(C(=O)OCC)CCN(S(=O)(=O)c2ccccc2)CC1` the max response, negative = inhibition was inactive: 2.08%.
In the case of `C(=C\c1ccccc1)/CN1CCN(C(c2ccccc2)c2nnnn2C2CCCCC2)CC1` (configuration not stated), the max response, negative = inhibition was active: -90.9%.
With `Cc1cc2c(c(/C=C/C(=O)c3ccccc3)c1)OC1(C=C2)Oc2ccccc2C(=O)N1C` (configuration not stated) the max response, negative = inhibition was inactive: -18.5%.
For `COc1ccc(/C=C2\CCC(C3CCCC3)C2=O)c(OC)c1OC` (configuration not stated), the max response, negative = inhibition was inconclusive: -39.5%.
For `Cc1ccc(OCC(O)CNCc2ccccc2)cc1C` (configuration not stated), the max response, negative = inhibition was inconclusive: -35.6%.
In the case of `C=CCc1cc(OC)ccc1OCC(O)CN1CCN(c2ccc(OC)cc2)CC1` (configuration not stated), the max response, negative = inhibition was inactive: -5.92% and inconclusive: -45.3%.
For `CCOC(=O)C(NC(=O)c1ccccc1)(N1CCOCC1)C(F)(F)F` (configuration not stated), the max response, negative = inhibition was inconclusive: -37.7%.
`Cc1c(C(=O)N2CCN(C)CC2)oc2ccc(Br)cc12` was tested, and the max response, negative = inhibition was inconclusive: -31.9%.
With `CC(C)c1ccccc1OCCCCCN1CCOCC1` the max response, negative = inhibition was active: -53.7%.
In the case of `CCOC(=O)C1CSc2[nH]c(=O)sc2C1c1ccccc1` (configuration not stated), the max response, negative = inhibition was inconclusive: -36.4%.
`C=CCOc1ccc(C2C(C(=O)c3ccco3)=C(O)C(=O)N2CCCN(CC)CC)cc1` (configuration not stated) was tested, and the max response, negative = inhibition was inconclusive: -45.7%.
`COc1cccc(C(=O)NC2CC3CCCC(C2)N3Cc2ccc(C)cc2)c1` (configuration not stated) was tested, and the max response, negative = inhibition was active: -112%.
With `Cc1ccc(C2N(c3ccccc3)C(=S)N3CCCN23)cc1` (configuration not stated) the max response, negative = inhibition was inconclusive: -33.2%.
For `CC1=C(C(=O)N2CCCCCC2)CC(CC(=O)NC2CCCCC2)C(=O)N1Cc1ccc(C(C)(C)C)cc1` (configuration not stated), the max response, negative = inhibition was inconclusive: -45.2%.
`Cc1cc(C)cc(NS(=O)(=O)c2ccc3[nH]cc(C(=O)NCc4ccco4)c(=O)c3c2)c1` was tested, and the max response, negative = inhibition was inconclusive: -37.9%.
With `Cc1cc(C)n(CC(C)NC(=O)c2cc(COc3ccc(F)c(F)c3)on2)n1` (configuration not stated) the max response, negative = inhibition was inactive: 6.83%.
In the case of `CCOC(=O)C1=C(C)N=C2SC(C(=O)OC)=CC(=O)N2C1c1ccc(OC)cc1` (configuration not stated), the max response, negative = inhibition was inconclusive: -33.6%.
In the case of `Cc1ccc(NC(=O)CN(C)C(=O)C(C)OC(=O)c2ccccc2NCCO)cc1` (configuration not stated), the max response, negative = inhibition was inactive: 9.62%.
In the case of `CCN(CC)CCCN(C(=O)c1ccco1)c1nc(-c2ccc(Cl)cc2)cs1`, the max response, negative = inhibition was active: -50.3%.
With `COc1ccc(CCNC(=O)CCN2C(=O)COc3ccc(C)cc32)cc1OC` the max response, negative = inhibition was active: -65.1%.
In the case of `CCCc1nc2ccccc2c2nc(N)nn12`, the max response, negative = inhibition was inactive: -13.9%.
With `CCOc1ccc(S(=O)(=O)Nc2cccc(Cl)c2)cc1` the max response, negative = inhibition was inconclusive: -41.9%.
For `O=C(N/C=N/OCc1ccc(Cl)cc1Cl)NOCc1c(Cl)cccc1Cl`, the max response, negative = inhibition was inconclusive: -38%.
In the case of `COc1ccc(NC(=O)CCS(=O)(=O)c2ccc(Cl)cc2)cc1`, the max response, negative = inhibition was inactive: 0.832%.
In the case of `O=C(N/N=C/c1ccc(N2CCOCC2)c([N+](=O)[O-])c1)c1ccc(F)cc1`, the max response, negative = inhibition was inconclusive: -37.7%.
With `CCCc1[nH]nc2c1C(c1ccc(OC)c(CSC3=NCCS3)c1)C(C#N)=C(N)O2` (configuration not stated) the max response, negative = inhibition was inconclusive: -38.2%.
In the case of `Cc1ccsc1/C=N/NC(=O)c1nnn(-c2nonc2N)c1CN(C)c1ccccc1`, the max response, negative = inhibition was inactive: 1.1%.
`COC(=O)c1ccc2c(=O)n(CCO)c(=S)[nH]c2c1` was tested, and the max response, negative = inhibition was inconclusive: -39.6%.
In the case of `CC1CN(C(=S)Nc2ccccc2C(F)(F)F)CC(C)O1` (configuration not stated), the max response, negative = inhibition was inactive: 0.527%.
For `COc1ccccc1N1CCN(Cc2cc(Br)c(O)c3ncccc23)CC1`, the max response, negative = inhibition was active: -83.8%.
`CCC(C(=O)NC1CCCC1)n1c(-c2ccccn2)nc2ccccc21` (configuration not stated) was tested, and the max response, negative = inhibition was inactive: 11.9%.
For `C=CCN=C(NC#N)SCCc1ccccc1`, the max response, negative = inhibition was inconclusive: -34.3%.
For `O=C1CC[C@@H]2CC3(C[C@@H]4CCN1[C@H]24)Nc1ccccc1NC3=NC1CCCCC1` (some centres not stated), the max response, negative = inhibition was inconclusive: -33.3%.
With `O=C(Cc1ccc(Br)cc1)Nc1cccc(Cl)c1` the max response, negative = inhibition was inconclusive: -40.1%.
For `CCOc1cc(S(=O)(=O)N2CCN(Cc3ccccc3)CC2)ccc1Br`, the max response, negative = inhibition was inconclusive: -30.1%.
With `COc1cccc(Nc2c(Nc3cccc(OC)c3)c(=O)c2=O)c1` the max response, negative = inhibition was active: -68%.
With `Cc1ccccc1/C=C/C1=NCCN1` the max response, negative = inhibition was inconclusive: -38.5%.
For `COC(=O)c1c(NC(=O)CSc2nnnn2-c2ccccc2)sc2c1CCC(C(C)(C)C)C2` (configuration not stated), the max response, negative = inhibition was inactive: 14.4%.
